Data on one sequence can be found in PMC13674618.

No signal at the amounts used counts as a negative.

For the data set, the target named is Human serum albumin (HSA) (Homo sapiens) (UniProt P02768). Briefly: FO-SPR. The following applies: no discernible signal variation with varying HSA in PBS; 5'-AminoC6; PBS (immobilization and rinse PBS pH 7.4); FO-SPR 10 min per concentration step; aptamer folded 95 C 5 min, ice 15 min, RT 5 min; assay temperature not stated; single-stranded DNA.

In the case of “CTTCCAACGCTCGTATTGTCAGTCTTTAGT [IL-6 specific aptamer (Apt)]”, the binding result was “no binding”.
